Article PMC12440826, “Shigella flexneri evades LPS ubiquitylation through IpaH1.4-mediated degradation of RNF213” (Nature Structural & Molecular Biology, 2025)
Results are given in words; binding and its absence hold for the method and conditions named. Binding seen in cells or lysates may run through a third protein. Some binding calls cover weakened binding; strength is not graded here.

Protein sequences, listed by entry. Tags and fused reporters are not part of them.
UniProt Q63HN8: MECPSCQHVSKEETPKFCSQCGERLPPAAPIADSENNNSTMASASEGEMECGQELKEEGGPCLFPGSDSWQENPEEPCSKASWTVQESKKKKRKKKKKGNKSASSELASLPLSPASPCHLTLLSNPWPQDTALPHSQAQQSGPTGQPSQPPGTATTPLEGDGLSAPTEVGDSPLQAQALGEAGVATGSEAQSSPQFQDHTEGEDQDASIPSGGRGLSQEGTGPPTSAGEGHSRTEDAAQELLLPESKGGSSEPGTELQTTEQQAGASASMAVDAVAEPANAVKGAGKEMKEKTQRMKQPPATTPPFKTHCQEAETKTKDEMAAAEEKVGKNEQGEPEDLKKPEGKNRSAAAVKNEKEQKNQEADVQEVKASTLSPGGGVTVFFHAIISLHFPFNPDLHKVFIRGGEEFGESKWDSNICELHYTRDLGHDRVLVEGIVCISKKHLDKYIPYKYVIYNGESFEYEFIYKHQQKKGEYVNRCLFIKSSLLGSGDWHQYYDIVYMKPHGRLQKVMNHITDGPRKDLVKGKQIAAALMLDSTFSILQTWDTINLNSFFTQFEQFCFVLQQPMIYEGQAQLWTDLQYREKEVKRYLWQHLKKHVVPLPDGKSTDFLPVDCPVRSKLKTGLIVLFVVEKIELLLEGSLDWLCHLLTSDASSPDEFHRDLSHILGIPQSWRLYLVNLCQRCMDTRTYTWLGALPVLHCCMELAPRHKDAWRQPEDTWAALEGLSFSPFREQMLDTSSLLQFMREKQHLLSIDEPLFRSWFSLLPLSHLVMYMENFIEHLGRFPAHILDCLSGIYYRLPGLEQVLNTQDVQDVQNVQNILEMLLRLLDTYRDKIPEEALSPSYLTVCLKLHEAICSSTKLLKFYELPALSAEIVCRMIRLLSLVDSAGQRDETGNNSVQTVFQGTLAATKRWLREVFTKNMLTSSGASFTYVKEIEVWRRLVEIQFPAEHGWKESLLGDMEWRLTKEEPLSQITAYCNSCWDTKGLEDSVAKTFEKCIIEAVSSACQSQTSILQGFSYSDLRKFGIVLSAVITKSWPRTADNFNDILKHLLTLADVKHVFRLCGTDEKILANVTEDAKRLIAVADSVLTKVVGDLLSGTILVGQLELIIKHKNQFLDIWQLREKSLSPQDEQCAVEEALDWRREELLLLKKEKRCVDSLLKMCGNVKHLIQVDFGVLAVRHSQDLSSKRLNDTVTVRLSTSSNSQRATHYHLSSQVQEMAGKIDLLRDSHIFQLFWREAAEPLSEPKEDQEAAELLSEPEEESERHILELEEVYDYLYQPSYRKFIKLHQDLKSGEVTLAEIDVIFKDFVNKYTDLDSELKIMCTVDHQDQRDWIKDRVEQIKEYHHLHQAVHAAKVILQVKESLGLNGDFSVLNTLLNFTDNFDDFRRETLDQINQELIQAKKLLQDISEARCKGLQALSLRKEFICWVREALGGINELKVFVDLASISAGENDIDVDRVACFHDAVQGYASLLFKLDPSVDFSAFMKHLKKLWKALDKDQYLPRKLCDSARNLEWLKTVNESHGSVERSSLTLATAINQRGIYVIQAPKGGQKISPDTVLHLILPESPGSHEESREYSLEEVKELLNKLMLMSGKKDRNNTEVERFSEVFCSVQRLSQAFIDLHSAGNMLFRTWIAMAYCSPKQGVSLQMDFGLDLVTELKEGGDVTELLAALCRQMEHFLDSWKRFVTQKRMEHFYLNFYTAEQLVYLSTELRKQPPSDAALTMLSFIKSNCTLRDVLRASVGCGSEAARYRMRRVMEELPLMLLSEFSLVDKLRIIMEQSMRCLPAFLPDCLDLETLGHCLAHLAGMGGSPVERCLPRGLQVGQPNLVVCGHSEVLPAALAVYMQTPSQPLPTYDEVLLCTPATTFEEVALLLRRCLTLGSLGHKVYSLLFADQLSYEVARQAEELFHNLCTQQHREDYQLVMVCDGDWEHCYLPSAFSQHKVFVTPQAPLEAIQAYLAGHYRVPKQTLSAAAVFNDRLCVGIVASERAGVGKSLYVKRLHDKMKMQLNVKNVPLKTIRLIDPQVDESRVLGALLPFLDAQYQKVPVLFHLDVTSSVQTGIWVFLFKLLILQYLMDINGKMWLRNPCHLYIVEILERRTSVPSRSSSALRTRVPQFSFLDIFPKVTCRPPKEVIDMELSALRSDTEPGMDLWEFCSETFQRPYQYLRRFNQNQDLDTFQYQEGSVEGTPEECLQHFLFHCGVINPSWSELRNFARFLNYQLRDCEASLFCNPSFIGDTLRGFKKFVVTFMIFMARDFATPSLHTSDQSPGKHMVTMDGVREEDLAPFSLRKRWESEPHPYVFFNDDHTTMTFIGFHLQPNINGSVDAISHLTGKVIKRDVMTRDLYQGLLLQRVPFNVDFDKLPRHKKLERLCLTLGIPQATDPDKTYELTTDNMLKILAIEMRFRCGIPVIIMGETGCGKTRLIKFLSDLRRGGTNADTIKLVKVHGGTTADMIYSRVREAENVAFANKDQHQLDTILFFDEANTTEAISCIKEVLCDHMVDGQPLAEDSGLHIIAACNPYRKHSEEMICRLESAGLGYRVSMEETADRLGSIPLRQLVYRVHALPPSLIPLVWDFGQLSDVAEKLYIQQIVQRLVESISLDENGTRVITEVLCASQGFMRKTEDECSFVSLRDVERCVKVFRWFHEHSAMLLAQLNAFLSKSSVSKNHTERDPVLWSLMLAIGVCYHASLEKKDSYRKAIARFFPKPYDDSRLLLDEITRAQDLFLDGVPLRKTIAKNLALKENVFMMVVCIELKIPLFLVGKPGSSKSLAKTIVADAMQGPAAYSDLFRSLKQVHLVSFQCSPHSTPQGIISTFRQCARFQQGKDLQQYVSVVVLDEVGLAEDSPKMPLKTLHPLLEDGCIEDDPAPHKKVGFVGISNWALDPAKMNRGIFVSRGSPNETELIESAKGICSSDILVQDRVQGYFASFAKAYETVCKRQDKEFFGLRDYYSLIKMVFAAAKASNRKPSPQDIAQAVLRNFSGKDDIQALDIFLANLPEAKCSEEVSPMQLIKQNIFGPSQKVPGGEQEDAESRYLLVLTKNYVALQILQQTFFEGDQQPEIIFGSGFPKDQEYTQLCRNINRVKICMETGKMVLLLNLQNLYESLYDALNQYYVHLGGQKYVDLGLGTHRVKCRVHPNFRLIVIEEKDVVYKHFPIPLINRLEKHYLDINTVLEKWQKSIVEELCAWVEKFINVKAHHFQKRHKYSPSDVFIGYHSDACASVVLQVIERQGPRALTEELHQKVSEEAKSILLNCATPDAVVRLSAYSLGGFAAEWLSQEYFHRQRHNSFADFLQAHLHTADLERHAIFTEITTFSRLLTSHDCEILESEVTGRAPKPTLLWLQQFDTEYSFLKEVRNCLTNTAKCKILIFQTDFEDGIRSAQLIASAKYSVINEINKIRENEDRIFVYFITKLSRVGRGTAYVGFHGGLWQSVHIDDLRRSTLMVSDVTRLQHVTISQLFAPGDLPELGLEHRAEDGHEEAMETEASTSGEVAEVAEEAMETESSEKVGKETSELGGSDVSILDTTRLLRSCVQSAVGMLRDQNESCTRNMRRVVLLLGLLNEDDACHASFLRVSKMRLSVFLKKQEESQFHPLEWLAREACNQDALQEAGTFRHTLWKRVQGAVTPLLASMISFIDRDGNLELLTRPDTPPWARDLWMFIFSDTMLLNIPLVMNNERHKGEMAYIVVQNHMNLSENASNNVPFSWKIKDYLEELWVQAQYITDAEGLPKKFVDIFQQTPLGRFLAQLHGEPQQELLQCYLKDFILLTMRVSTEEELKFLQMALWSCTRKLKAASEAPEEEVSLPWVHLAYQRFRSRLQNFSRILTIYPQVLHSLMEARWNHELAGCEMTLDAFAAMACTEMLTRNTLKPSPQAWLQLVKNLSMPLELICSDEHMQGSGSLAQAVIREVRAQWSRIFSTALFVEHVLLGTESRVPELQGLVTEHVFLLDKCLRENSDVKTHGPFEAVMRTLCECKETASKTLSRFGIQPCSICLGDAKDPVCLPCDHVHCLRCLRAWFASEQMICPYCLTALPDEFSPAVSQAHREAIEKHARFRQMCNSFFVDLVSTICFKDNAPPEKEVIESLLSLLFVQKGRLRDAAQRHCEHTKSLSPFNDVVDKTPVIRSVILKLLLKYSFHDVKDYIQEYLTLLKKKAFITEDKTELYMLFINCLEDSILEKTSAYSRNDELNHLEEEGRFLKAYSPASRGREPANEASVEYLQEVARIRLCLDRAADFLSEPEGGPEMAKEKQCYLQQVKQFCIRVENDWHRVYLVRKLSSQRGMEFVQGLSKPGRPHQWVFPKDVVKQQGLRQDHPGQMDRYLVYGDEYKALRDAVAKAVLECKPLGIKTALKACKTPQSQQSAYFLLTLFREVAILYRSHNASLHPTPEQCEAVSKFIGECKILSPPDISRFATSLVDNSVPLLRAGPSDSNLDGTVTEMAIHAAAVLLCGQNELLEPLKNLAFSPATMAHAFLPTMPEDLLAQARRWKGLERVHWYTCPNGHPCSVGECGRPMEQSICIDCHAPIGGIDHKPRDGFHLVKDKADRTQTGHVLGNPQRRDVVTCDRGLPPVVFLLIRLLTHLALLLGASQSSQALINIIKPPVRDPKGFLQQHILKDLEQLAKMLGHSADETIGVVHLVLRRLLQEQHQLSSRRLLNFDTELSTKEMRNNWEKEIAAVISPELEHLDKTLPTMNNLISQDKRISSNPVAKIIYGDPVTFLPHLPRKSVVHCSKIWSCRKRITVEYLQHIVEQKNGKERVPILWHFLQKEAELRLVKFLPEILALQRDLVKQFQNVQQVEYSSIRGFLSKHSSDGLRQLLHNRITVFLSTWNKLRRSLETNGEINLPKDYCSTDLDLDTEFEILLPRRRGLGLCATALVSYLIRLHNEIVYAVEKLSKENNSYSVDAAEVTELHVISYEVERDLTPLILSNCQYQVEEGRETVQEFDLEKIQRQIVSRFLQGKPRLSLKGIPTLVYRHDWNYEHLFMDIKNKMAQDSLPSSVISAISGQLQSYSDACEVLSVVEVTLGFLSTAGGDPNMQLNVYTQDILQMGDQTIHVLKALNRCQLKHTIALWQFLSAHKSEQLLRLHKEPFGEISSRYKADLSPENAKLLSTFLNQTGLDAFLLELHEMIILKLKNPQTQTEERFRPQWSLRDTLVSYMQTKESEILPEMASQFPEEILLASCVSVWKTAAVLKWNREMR

Key:
[1] = target: GST–IpaH1.4-C368A (catalytically dead IpaH1.4) (S. flexneri); assay: pull-down; purified catalytically dead GST–IpaH proteins on GST–Sepharose resin; cell lysate with RNF213 applied (20 mM Tris-HCl pH 8, 150 mM NaCl, 0.1% Triton X-100, 5 mM EDTA), beads washed three times, glutathione elution, bound RNF213 detected by western blot; only the target purified
[2] = target: GST–IpaH7.8-C357A (catalytically dead IpaH7.8) (S. flexneri) (UniProt P18014); assay: as above

With “GFP–RNF213 (human) (from UniProt Q63HN8 1-5207) (enzyme)” as the substance, how does the binding [1] read?
The binding was “binds”.

What about the binding [2] of the same substance?
Its binding is “no binding”.
